Data on one compound can be found in PubChem BioAssay AID1487 (National Center for Advancing Translational Sciences (NCATS), 2009).

SMILES strings stand for the structures. The list shows a part of the results. Shown are side measurements of this screen, not its main read-out; they come without a call. The list favours compounds with an active or inconclusive main result. The note in brackets gives the kind of curve behind each potency; many fits are weak.

This test in a line: qHTS Assay for Modulators of Lamin A Splicing. The note with it: HeLa LMNA splicing GFP/RFP minigene ratio, 48 h; measured here: RFP viability control channel. From the text:
NCGC Assay Overview: Hutchinson-Gilford Progeria Syndrome (HGPS) is a pediatric premature aging disease caused by a spontaneous mutation in the lamin A/C (LMNA) gene. The mutation activates a cryptic splice site in the LMNA pre-mRNA which results in production of a pre-lamin A protein that cannot be processed properly. The mutant protein accumulates in the nucleus and negatively affects numerous cellular functions. Correction of the splicing defect in HGPS patient cells using a targeted oligonucleotide (exo11) leads to reversal of the cellular disease phenotypes. […] References: Bowen, W. P.; Wylie, P. G. Application of Laser-Scanning Fluorescence Microplate Cytometry in High Content Screening. […]
NCGC Assay Protocol Summary: Reagents/Controls: Stable clones expressing DsRed2 and lamin A-EGFP were generated by Cell and Molecular Technologies in S3 HeLa cells. […] The cells were counted and resuspended in Opti-MEM I (no phenol red; Gibco), 2% FBS, 1% penicillin/ streptomycin (Gibco) at concentration of 120 cells/uL concentration. […] Following incubation the plates were read on the Acumen Explorer using the 488 nm laser. […] The ratio of the total object intensity in PMT1 (500-530 nm emission; GFP) over PMT3 (575-640 nm emission; RFP) was calculated for analysis. […]
In general terms: qHTS replaces the single test concentration by a dilution series.
Take `O=C(Nc1ccc(-c2nc3ccccc3[nH]2)cc1)c1ccccc1NS(=O)(=O)c1ccc(F)cc1`: the AC50 was 6.31 µM [rising, partial curve].

As usually defined, the AC50 is the concentration at which the activity in the assay is half-maximal.
